{"sequences": {"note": "Protein sequences, listed by entry. Tags and fused reporters are not part of them.", "UniProt P0C0U1": "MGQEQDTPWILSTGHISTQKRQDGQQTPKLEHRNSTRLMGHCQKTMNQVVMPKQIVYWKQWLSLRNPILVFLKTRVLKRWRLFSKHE", "UniProt O00165": "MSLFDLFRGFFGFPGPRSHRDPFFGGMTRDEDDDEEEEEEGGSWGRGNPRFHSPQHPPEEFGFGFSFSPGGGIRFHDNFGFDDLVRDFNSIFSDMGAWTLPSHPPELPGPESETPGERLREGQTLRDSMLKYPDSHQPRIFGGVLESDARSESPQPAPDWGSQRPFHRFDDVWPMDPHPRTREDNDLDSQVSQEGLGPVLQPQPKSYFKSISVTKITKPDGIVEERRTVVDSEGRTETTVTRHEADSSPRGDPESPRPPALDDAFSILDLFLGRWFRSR"}, "source": "paper PMC5952157", "molecular_target": "Flag-tagged PB1-F2 of H1N1 A/Puerto Rico/8/1934 (influenza A virus A/Puerto Rico/8/1934 (H1N1)) (UniProt P0C0U1)", "assay": "co-IP; only the target purified", "note": "No constants are given. Whether binding was seen depends on the method and setting. Binding seen in cells or lysates may run through a third protein. Some binding calls cover weakened binding; strength is not graded here.", "data": [{"substance": "V5-HAX-1 (HCLS1-associated protein X-1) (from UniProt O00165 1-279)", "values": [{"measurement": "binding", "value": "binds"}]}]}
